Binding data for one molecule are collected here from US20220403023A1.

The assay concerns the target cynomolgus monkey CD47 on engineered CHO-K1 cells (cynomolgus monkey). Description: FACS on engineered CD47-expressing cells.

These are yes or no findings as the source states them, for the method shown. Some binding calls cover weakened binding; strength is not graded here.

B1: W3455-4.9.9-uIgG4.SPL (antibody, V domains shown)
VH: EVQLLESGGGLVQPGGSLRLSCAASGFTFSNFAMSWVRQAPGKGLEWVSTISASGGRTFYADSVKGRITISRDNSKNTLFLQMNGLRAEDTAVYYCAKEGSFGEGVDPWGQGTLVTVSS
VL: SYEMTQPPSVSVSPGQTARITCSGDALPKKYAYWYQQKSGQAPVLVIYEDNKRPSGIPERFSGSSSGTMATLTISGAQVEDEADYYCYSTDISGNHWVFGGGTELTVLG
Consider B1, for which the binding entry was “binds”.
